Source: publication PMC4858740
Results are given in words; binding and its absence hold for the method and conditions named. A result given as binding can be weak or reduced; the word gives no strength.

The chains behind the UniProt entries cited, without tags or fusion partners. Where a name states a change or a piece, a line headed by the entry shows the natural chain unless it says otherwise. Residues count along the entry.
UniProt P01024, residues 23-1663: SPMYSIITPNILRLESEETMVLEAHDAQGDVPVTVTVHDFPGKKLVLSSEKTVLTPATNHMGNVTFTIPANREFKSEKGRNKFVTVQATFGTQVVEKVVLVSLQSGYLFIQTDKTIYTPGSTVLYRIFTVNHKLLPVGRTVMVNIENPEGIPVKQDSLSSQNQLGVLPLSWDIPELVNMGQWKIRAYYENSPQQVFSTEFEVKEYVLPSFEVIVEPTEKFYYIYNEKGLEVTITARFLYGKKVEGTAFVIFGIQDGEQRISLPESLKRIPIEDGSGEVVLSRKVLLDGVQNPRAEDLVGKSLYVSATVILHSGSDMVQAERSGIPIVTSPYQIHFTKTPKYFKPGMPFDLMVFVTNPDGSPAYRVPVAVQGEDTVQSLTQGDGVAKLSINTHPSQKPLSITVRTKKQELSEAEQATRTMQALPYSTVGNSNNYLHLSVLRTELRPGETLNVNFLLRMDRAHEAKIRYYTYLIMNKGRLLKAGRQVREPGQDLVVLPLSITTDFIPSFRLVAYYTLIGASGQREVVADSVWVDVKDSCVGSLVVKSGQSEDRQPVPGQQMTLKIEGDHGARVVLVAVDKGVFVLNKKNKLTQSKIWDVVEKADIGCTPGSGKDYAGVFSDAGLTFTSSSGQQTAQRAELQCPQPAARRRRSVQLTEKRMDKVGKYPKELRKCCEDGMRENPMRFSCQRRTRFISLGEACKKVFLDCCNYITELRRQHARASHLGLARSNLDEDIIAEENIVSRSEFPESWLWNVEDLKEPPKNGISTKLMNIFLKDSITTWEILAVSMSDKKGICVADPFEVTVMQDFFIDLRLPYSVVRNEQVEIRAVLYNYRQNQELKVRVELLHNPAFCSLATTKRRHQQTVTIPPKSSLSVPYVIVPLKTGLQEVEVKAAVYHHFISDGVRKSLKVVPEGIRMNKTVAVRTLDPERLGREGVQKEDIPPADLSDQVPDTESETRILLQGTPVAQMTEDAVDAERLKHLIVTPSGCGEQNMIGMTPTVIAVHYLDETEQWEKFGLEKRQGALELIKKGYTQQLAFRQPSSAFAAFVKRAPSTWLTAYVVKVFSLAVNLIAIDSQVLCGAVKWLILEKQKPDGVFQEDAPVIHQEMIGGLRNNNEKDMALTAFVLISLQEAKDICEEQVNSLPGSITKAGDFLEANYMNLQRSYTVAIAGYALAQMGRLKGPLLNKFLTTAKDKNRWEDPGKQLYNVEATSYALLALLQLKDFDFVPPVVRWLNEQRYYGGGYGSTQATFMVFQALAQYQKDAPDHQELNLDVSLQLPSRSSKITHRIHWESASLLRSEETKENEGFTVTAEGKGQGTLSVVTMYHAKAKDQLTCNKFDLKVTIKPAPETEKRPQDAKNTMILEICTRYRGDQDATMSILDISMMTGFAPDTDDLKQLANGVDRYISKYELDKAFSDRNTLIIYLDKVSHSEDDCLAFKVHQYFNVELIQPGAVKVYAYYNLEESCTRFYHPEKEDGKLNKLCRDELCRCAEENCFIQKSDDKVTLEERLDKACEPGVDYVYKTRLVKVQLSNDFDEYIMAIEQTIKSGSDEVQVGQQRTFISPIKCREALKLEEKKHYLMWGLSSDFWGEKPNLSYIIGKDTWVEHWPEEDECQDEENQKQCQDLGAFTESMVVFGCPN
UniProt P10228: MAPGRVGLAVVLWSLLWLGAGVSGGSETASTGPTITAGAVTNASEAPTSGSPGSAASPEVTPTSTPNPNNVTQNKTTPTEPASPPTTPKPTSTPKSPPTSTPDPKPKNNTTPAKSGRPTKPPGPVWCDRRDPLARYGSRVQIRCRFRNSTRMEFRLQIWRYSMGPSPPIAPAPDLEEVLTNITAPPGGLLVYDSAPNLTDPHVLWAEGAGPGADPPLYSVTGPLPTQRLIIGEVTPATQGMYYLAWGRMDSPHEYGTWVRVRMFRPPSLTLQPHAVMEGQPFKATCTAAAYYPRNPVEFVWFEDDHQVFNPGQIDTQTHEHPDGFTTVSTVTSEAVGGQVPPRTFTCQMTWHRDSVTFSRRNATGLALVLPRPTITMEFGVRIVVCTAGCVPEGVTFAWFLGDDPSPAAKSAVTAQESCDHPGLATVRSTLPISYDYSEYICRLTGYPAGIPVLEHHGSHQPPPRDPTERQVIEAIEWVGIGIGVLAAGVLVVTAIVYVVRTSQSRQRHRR

Molecular target: complement factor C3 (human) (UniProt P01024)
Assay: peptide or protein array; both purified

## HSV glycoprotein C (from UniProt P10228)
  binding: binds
